Measurements: PubChem BioAssay AID720504 (National Center for Advancing Translational Sciences (NCATS), 2013)
Out of some 360,000 compounds screened, about 10,000 (2.8%) were called active. Inconclusive means that the source gave no clear call. Such entries were picked first, then a sample of the others. Calls follow the shape of the dose curve; as a rule, active = well fitted inhibition curve with a large enough effect; inconclusive = small, poorly fitted or top-dose-only effect; inactive = flat fitted curve, though single readings scatter. Where the call is inconclusive, the potency comes from a doubtful curve fit.

Chains of the proteins cited; added tags and fusions are not shown.
UniProt P53350, whole entry, looked up: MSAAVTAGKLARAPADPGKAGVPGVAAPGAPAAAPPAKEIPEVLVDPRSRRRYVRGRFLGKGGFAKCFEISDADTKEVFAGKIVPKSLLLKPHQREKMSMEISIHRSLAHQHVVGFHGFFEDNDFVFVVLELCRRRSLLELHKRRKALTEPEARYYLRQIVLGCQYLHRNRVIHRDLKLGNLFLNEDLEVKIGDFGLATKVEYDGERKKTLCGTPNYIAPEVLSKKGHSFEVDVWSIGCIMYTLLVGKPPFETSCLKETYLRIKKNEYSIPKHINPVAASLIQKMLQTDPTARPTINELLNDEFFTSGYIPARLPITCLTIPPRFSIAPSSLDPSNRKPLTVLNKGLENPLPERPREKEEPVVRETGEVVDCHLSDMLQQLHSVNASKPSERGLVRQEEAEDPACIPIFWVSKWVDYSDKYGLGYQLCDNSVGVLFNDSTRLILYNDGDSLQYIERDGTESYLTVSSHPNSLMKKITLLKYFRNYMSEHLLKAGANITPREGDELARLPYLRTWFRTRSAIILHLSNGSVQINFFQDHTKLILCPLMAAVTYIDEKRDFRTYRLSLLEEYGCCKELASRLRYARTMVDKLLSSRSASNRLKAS

Biological target: Serine/threonine-protein kinase PLK1 (Homo sapiens) (UniProt P53350)
Experiment: qHTS for Inhibitors of PLK1-PDB (polo-like kinase 1 - polo-box domain): Primary Screen; also: nearly all actives have a fitted effect of over 65% in size; as to max response, negative = inhibition: series mostly up to about 57 µM
Conditions: Plk1 PBD binding of FITC phosphopeptide, fluorescence polarization
% is scaled to controls: 0 for no effect and ±100 for the full control effect; potency is read from the fitted curve at half-maximal effect.

Row | Compound | max response, negative = inhibition | Potency
1 | Cc1ccccc1NC1=NCC(C)S1 (stereo not drawn) | inactive: -0.0487% | 
2 | CC(C)c1ccc(N2C(=O)NC(=O)/C(=C/C=C/c3ccco3)C2=O)cc1 |  | active: 0.67 µM
3 | CC(C)CN1Cc2cc(-c3ccccc3)ccc2-n2nncc2C1 | inconclusive: -32.9% [inhibitor] | 
4 | CCCCCCNC(=O)N[C@@H](Cc1ccc(O)cc1)C(=O)NCCC[C@H]1CN2C(=NC[C@H]2C)N1CC1CCC1 |  | inconclusive: 29.9 µM [inhibitor, single point]
5 | CCCCOc1ccc(CC2C(=O)N(C)C(=O)N(C)C2=O)cc1 |  | inconclusive: 26.7 µM [inhibitor, partial curve]
6 | CCC(C)N1C(=O)/C(=C\c2cc3c4c(c2)CCCN4CCC3)C(=O)NC1=S (stereo not drawn) |  | active: 0.947 µM
7 | Cc1cc(/C=C2\C(=O)NC(=O)N(c3ccccc3F)C2=O)c(C)n1-c1cc(C(=O)O)cc(C(=O)O)c1 |  | inconclusive: 5.32 µM [inhibitor, full curve, poor fit]
8 | CCOC(=O)[C@]12Cc3cc(C)ccc3[C@H]1N(C(C)C)C(=O)c1ccccc12 |  | active: 10.6 µM
9 | CN(C)CC1CSCCC1(O)c1ccc(Cl)cc1 (stereo not drawn) |  | inconclusive: 26.7 µM [inhibitor, partial curve]
10 | O=C1NC(=O)N(Cc2ccc(F)cc2)C(=O)/C1=C\C=C\c1ccco1 |  | inconclusive: 1.5 µM [inhibitor, partial curve]
11 | CCSc1cc(C2C(C#N)=C(N)Oc3n[nH]c(C)c32)c(C)o1 (stereo not drawn) |  | inconclusive: 23.8 µM [inhibitor, partial curve]
12 | CCP(=S)(CC)c1ccc(N(C)C)cc1 |  | inconclusive: 42.3 µM [inhibitor, partial curve]
13 | O=C1NC(=O)N(CCc2ccc(F)cc2)C(=O)/C1=C/C=C/c1ccccc1 |  | active: 0.532 µM
14 | O=C1NC(=O)N(c2cccc(Br)c2)C(=O)/C1=C/c1ccsc1 |  | active: 2.38 µM
15 | COc1cc(/C=C2\C(=O)NC(=O)N(CCc3ccc(F)cc3)C2=O)ccc1O |  | active: 0.752 µM
16 | Cc1ccc(-n2nc(C)c3c2NC(=O)CSC3c2ccc3c(c2)OCO3)cc1 (stereo not drawn) |  | inconclusive: 23.8 µM [inhibitor, partial curve]
17 | CC(C)(C)c1ccc(OC(=O)N2CCCCC2)cc1 |  | active: 23.8 µM
18 | CCN1C(=O)CC(=O)N(CC)C1=S |  | inconclusive: 6.7 µM [inhibitor, partial curve]
19 | COC(=O)C[C@H]1CC[C@H]2NC[C@@H](O)COC[C@@H]2O1 | inactive: -11.8% | 
20 | O=C(/C=C/c1ccc2c(c1)OCO2)c1c(O)n(CCc2ccccc2)c(=O)[nH]c1=O |  | inconclusive: 26.7 µM [inhibitor, partial curve]
21 | C=CCN1C(=O)/C(=C/c2cccs2)C(=O)NC1=S |  | active: 5.32 µM
22 | O=c1[nH]c(=S)n(-c2ccc(Cl)cc2)c(O)c1C=Nc1ccc(N2CCOCC2)cc1 | inconclusive: -30.3% [inhibitor] | 
23 | C#C[C@]1(O)CCC2C3CCC4=C/C(=N/OCC(=O)NC(C)C(=O)NC(CCSC)C(=O)O)CC[C@]4(C)C3CC[C@@]21C (stereo partly drawn) |  | inconclusive: 23.8 µM [inhibitor, single point]

In a second layout: results already given
Row	Compound	max response, negative = inhibition	Potency
8	CCOC(=O)[C@]12Cc3cc(C)ccc3[C@H]1N(C(C)C)C(=O)c1ccccc12		active: 10.6 µM
9	CN(C)CC1CSCCC1(O)c1ccc(Cl)cc1 (stereo not drawn)		inconclusive: 26.7 µM [inhibitor, partial curve]
10	O=C1NC(=O)N(Cc2ccc(F)cc2)C(=O)/C1=C\C=C\c1ccco1		inconclusive: 1.5 µM [inhibitor, partial curve]

More records.

Row | Compound | max response, negative = inhibition | Potency
24 | O=c1oc2ccccc2c(O)c1C(c1ccc([N+](=O)[O-])cc1)c1c(O)c2ccccc2oc1=O |  | inconclusive: 8.44 µM [inhibitor, partial curve]
25 | C[Se]C[C@@H](N)C(=O)O | inactive: -1.05% | 
26 | CCOP1(=O)C=C(Sc2ccc([N+](=O)[O-])cc2[N+](=O)[O-])C(C)(C)O1 (stereo not drawn) |  | inconclusive: 9.47 µM [inhibitor, partial curve]
27 | CCOC(=O)[C@@]1(C#N)C(c2ccc(Cl)c(Cl)c2)[C@H](C(N)=O)N2C=C(C(C)=O)C=C[C@H]21 (stereo partly drawn) |  | inconclusive: 16.8 µM [inhibitor, partial curve]
28 | CCOC(=O)c1sc(/N=C/c2c(O)n(-c3ccccc3)c(=O)[nH]c2=O)c(C#N)c1C |  | inconclusive: 5.32 µM [inhibitor, full curve]
29 | c1ccc2c(CCNCc3ccc4c(c3)OCO4)c[nH]c2c1 | inactive: -2.19% | 
30 | Cc1ccc(NS(=O)(=O)c2ccc(Cl)c(N=Nc3c(O)[nH]c(=O)[nH]c3=O)c2)cc1Cl |  | inconclusive: 33.6 µM [inhibitor, single point]
31 | COc1c(C=C2C(=O)NC(=O)NC2=O)c(CCN(C)C(=O)c2ccccc2)cc2c1OCO2 |  | active: 26.7 µM
32 | CCOC(=O)c1c(-n2c(C)cc(C=C3C(=O)NC(=O)NC3=O)c2C)sc2c1CCCC2 |  | inconclusive: 0.597 µM [inhibitor, full curve, poor fit]
33 | O=C1NC(=O)N(c2ccc(F)cc2)C(=O)/C1=C/c1ccc2c(c1)CCCN2Cc1ccccc1 |  | inconclusive: 0.844 µM [inhibitor, partial curve]
34 | CCOC(=O)c1ccc(-n2c(N)c(C(=O)NCC3CCCO3)sc2=S)cc1 (stereo not drawn) |  | active: 11.9 µM
35 | COCOC1CCC2C3CCC4=CC(=O)CCC4=C3C=CC12C (stereo not drawn) |  | inconclusive: 21.2 µM [inhibitor, single point]
36 | CC(=O)n1cc(C=C2C(=O)NC(=O)NC2=O)c2ccccc21 |  | active: 4.23 µM
37 | O=C1CN(C(=O)CN2CCCCC2)C(c2ccccc2)c2cc(Br)ccc2N1 (stereo not drawn) |  | inconclusive: 29.9 µM [inhibitor, single point]
38 | COc1ccccc1NS(=O)(=O)c1cc(NC(=O)c2ccc(Cl)nc2)ccc1N1CCCC1 |  | active: 4.74 µM
39 | CC1CN=C(NCc2ccc(F)cc2)S1 (stereo not drawn) | inconclusive: -33.4% [inhibitor] | 
40 | O=C(CSc1ccccn1)Nc1cccc2ccccc12 |  | active: 21.2 µM
41 | CCCCn1c(NS(=O)(=O)c2ccccc2)c(C(=O)OCC)c2nc3ccccc3nc21 |  | inconclusive: 37.7 µM [inhibitor, partial curve]
42 | O=C1NC(=O)N(CC2CCCO2)C(=O)/C1=C/c1cccs1 (stereo not drawn) |  | inconclusive: 37.7 µM [inhibitor, single point]
43 | CCN(CC)S(=O)(=O)c1cccc(N=Nc2c(O)n(CC)c(=S)n(CC)c2=O)c1 |  | inconclusive: 21.2 µM [inhibitor, partial curve]
44 | CCn1nc(-c2cccs2)nc2c(=O)n(C)c(=O)nc1-2 | inactive: -13.6% | 
45 | O=C(c1ccccc1)N1CCC2(CC1)OCCO2 | inactive: -8.43% | 
46 | O=C1NC(=O)N(Cc2ccc(F)cc2)C(=O)/C1=C\c1ccc(N2CCCC2)cc1 |  | active: 1.5 µM

Row | Compound | max response, negative = inhibition | Potency
47 | Cc1cccc(NC2=NCCCS2)c1 | inactive: -2.27% | 
48 | Cc1cc(/C=C2/C(=O)NC(=O)N(c3ccccc3)C2=O)c(C)n1-c1ccc(F)cc1 |  | inconclusive: 7.52 µM [inhibitor, partial curve]
49 | CCC(C)N1C(=O)NC(=O)C2(Cc3c(ccc4ccccc34)N(C)C2)C1=O (stereo not drawn) |  | active: 13.4 µM
50 | CCOC(=O)C1CCCN(c2ccc([N+](=O)[O-])c3nonc23)C1 (stereo not drawn) |  | inconclusive: 5.32 µM [inhibitor, partial curve]
51 | CSc1nc(Cl)c(Br)c(N2CC2)n1 |  | inconclusive: 33.6 µM [inhibitor, single point]
52 | Cc1cccc(-n2c(O)c(C=Nc3ccc(Br)cn3)c(=O)[nH]c2=O)c1 |  | active: 5.97 µM
53 | CC(C)(C)c1ccc(-c2c(C(=O)O)c(C(=O)O)c3n2CSC3)cc1 |  | inconclusive: 15 µM [inhibitor, partial curve]
54 | CNC(=S)N(C)CCc1cc2c(c(OC)c1C=C1C(=O)NC(=O)NC1=O)OCO2 |  | inconclusive: 26.7 µM [inhibitor, single point]
55 | O=C(O)c1ccccc1-c1ccc(C=C2C(=O)N(c3ccccc3)C(=S)N(c3ccccc3)C2=O)o1 |  | active: 2.67 µM
56 | CCOC(=O)c1c(-n2c(C)cc(/C=C3/C(=O)NC(=O)N(CC)C3=O)c2C)sc2c1CCCC2 |  | inconclusive: 4.74 µM [inhibitor, partial curve]
57 | O=C1CN=C(c2ccc(F)cc2)c2oc3ccccc3c2N1 |  | inconclusive: 26.7 µM [inhibitor, single point]
58 | Nc1cc(C(=O)Nc2ccc(Cl)cc2)ccc1N1CC2CC(C1)c1cccc(=O)n1C2 (stereo not drawn) |  | inconclusive: 23.8 µM [inhibitor, partial curve]
59 | Cc1ccc2c(c1)CC1(CN2C)C(=O)NC(=O)N(C(C)C)C1=O (stereo not drawn) |  | inconclusive: 23.8 µM [inhibitor, partial curve]
60 | Cc1ccc(N2C(=O)NC(=O)/C(=C\c3cccn3C(C)(C)C)C2=O)cc1 |  | inconclusive: 13.4 µM [inhibitor, partial curve]
61 | O=C(CF)NC(NC(=S)Nc1cccc([N+](=O)[O-])c1)C(Cl)(Cl)Cl (stereo not drawn) | inactive: -19.9% | 
62 | c1ccc(CCCN2CCN(CCOC(c3ccccc3)c3ccccc3)CC2)cc1 |  | inconclusive: 26.7 µM [inhibitor, partial curve]
63 | CCC(CC)c1nnc(NC(=O)CC(C)c2ccccc2)s1 (stereo not drawn) |  | inconclusive: 21.2 µM [inhibitor, partial curve]
64 | COC(=O)C1=C(c2ccc(Cl)c(C(F)(F)F)c2)C[C@@H]2CC[C@H]1N2C(=O)NC1CCCCC1 | inactive: 2.47% | 
65 | CCC(CC)NCc1c[nH]c2ccccc12 |  | inconclusive: 26.7 µM [inhibitor, single point]
66 | COC(=O)Cn1cc(C=C2C(=O)N(C)C(=O)N(C)C2=O)c2ccccc21 |  | inconclusive: 13.4 µM [inhibitor, partial curve]
67 | O=C1NC(=O)N(Cc2ccco2)C(=O)/C1=C/C=C/c1ccco1 |  | active: 1.19 µM
68 | C[C@]12CC[C@@H]3c4ccc(O)c(O)c4CC[C@H]3[C@@H]1CC[C@@H]2O |  | inconclusive: 23.8 µM [inhibitor, single point]

Rewritten field by field: entries from further up.
CCCCCCNC(=O)N[C@@H](Cc1ccc(O)cc1)C(=O)NCCC[C@H]1CN2C(=NC[C@H]2C)N1CC1CCC1
  Potency: inconclusive: 29.9 µM [inhibitor, single point]
O=C(CF)NC(NC(=S)Nc1cccc([N+](=O)[O-])c1)C(Cl)(Cl)Cl (stereo not drawn)
  max response, negative = inhibition: inactive: -19.9%
